The results in this text go back to the supplement of paper PMC7666118.

Chains of the proteins cited; added tags and fusions are not shown. Lines headed by an entry give the natural chain unless they say otherwise; changes in a name come on top.
UniProt Q16566: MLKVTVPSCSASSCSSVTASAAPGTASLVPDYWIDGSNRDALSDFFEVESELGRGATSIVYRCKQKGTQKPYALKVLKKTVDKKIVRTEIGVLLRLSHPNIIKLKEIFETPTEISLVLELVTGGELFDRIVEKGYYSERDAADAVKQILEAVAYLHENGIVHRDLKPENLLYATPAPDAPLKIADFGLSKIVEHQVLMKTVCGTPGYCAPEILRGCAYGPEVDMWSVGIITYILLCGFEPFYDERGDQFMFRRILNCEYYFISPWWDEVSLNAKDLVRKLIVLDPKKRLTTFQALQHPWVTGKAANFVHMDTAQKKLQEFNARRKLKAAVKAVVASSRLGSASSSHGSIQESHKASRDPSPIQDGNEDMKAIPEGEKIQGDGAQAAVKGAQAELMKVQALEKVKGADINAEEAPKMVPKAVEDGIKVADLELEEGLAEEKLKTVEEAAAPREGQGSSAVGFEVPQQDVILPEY
UniProt P48643, whole entry: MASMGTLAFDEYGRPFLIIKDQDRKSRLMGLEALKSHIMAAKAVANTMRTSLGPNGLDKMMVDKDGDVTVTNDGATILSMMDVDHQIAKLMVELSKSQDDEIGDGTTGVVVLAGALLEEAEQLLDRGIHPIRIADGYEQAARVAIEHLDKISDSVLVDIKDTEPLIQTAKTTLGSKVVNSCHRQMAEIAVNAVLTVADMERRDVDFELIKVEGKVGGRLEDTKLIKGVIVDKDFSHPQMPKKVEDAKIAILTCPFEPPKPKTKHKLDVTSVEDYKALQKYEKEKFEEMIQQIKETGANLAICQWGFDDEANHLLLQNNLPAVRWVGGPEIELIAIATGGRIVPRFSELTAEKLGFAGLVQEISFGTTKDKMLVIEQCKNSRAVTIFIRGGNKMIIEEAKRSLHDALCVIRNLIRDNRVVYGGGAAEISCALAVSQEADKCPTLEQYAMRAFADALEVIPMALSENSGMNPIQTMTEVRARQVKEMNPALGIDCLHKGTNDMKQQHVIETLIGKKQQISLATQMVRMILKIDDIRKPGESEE
UniProt Q9BWL3: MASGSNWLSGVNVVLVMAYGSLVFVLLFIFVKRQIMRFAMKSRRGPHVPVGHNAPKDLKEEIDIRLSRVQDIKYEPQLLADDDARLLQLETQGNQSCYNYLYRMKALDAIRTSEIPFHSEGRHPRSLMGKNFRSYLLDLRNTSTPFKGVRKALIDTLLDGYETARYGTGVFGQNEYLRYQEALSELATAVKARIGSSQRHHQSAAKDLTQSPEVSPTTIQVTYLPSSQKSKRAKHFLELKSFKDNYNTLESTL
UniProt Q8N8R5: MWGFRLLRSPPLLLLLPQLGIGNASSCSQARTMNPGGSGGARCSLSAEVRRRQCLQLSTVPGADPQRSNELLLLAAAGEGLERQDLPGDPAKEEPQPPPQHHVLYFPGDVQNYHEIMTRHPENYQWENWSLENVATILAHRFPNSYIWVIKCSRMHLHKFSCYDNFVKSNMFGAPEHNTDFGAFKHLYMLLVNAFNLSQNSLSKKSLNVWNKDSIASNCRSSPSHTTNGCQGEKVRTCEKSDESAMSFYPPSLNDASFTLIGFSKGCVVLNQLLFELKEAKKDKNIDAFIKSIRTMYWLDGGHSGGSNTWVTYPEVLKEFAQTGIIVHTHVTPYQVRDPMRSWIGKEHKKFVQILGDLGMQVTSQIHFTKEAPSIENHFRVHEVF
UniProt Q9BSD7: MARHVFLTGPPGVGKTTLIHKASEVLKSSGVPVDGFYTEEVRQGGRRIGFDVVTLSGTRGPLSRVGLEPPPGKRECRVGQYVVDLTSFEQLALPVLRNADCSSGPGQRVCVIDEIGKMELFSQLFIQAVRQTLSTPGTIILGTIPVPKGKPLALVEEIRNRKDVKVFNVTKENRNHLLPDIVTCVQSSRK
UniProt P27824: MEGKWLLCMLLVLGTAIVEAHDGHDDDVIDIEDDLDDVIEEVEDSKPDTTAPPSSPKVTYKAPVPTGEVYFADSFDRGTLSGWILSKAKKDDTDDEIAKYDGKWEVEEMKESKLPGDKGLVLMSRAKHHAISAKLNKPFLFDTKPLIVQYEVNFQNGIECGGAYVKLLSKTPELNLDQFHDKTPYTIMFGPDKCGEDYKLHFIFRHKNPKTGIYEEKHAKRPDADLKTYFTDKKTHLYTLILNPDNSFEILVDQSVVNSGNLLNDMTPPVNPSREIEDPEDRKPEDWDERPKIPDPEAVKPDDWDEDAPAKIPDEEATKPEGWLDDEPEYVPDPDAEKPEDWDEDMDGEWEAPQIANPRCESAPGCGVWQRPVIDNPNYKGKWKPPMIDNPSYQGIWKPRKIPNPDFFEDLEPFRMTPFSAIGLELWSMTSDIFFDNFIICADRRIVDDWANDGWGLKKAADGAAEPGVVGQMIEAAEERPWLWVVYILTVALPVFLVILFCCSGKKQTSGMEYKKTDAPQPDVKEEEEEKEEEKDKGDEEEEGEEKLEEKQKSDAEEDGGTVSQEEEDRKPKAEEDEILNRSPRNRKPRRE
UniProt Q9HC52: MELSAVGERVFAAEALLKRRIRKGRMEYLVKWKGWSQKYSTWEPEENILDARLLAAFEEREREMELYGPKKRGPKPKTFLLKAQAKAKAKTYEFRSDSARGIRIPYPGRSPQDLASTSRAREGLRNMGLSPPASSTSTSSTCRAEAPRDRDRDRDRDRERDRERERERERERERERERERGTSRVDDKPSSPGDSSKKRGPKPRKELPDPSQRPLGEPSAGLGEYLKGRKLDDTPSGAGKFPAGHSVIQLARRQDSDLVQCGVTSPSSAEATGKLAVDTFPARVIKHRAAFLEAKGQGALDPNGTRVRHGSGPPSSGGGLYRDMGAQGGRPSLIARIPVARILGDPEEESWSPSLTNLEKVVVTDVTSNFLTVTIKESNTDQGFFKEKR
UniProt Q96JG6: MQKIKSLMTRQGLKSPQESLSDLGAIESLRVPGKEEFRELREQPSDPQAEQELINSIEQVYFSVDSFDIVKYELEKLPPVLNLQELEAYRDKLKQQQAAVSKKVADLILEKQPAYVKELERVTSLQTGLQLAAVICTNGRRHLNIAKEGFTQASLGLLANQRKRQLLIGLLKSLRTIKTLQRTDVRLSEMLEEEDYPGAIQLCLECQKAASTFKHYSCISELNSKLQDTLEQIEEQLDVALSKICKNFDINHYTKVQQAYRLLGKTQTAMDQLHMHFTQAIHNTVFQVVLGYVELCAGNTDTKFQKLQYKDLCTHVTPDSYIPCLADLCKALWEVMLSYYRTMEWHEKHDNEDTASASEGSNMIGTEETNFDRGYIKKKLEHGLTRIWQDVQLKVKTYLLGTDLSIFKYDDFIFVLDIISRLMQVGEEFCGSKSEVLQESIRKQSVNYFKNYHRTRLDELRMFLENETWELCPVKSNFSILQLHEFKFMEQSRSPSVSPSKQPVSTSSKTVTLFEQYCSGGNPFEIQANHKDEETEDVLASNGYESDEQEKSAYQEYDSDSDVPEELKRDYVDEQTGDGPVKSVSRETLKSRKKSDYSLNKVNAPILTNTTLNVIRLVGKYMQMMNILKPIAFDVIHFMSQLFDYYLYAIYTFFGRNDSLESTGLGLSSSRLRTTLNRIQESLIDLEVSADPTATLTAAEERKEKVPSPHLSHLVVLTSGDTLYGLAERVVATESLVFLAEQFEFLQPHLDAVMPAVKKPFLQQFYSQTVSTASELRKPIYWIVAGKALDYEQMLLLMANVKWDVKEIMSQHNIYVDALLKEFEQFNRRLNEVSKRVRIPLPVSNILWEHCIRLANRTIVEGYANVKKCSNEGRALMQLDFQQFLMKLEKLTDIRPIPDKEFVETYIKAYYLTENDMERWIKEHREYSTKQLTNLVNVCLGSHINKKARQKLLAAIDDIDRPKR
UniProt Q8WWB7: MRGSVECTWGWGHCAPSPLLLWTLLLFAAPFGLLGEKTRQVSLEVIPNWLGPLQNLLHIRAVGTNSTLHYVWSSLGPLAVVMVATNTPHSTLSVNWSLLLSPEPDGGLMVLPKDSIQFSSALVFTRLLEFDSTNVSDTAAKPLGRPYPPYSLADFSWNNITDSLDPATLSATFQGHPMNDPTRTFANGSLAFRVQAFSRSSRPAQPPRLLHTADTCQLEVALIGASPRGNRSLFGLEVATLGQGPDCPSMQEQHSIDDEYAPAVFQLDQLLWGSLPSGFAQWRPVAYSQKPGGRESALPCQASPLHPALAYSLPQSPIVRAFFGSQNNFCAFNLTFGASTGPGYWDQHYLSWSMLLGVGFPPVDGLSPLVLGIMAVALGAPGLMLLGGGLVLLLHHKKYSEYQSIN
UniProt P29466: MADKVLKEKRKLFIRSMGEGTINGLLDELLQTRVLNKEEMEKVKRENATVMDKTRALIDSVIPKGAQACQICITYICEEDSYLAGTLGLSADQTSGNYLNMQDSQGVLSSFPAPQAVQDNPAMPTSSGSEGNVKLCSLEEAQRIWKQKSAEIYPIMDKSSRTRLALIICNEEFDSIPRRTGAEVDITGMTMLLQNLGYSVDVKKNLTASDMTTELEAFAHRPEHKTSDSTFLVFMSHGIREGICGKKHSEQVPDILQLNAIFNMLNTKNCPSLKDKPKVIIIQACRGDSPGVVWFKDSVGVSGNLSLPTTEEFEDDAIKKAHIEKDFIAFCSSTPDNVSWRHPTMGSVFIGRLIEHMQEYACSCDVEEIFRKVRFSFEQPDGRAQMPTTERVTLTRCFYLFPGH
UniProt O95873: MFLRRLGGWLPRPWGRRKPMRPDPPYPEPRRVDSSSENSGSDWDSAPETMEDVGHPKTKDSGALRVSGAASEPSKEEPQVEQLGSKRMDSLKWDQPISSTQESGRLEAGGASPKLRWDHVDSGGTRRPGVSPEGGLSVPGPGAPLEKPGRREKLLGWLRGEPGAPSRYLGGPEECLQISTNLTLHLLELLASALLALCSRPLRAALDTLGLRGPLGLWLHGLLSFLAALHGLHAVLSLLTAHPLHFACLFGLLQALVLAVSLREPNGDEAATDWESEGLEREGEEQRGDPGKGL
UniProt Q9BQ75: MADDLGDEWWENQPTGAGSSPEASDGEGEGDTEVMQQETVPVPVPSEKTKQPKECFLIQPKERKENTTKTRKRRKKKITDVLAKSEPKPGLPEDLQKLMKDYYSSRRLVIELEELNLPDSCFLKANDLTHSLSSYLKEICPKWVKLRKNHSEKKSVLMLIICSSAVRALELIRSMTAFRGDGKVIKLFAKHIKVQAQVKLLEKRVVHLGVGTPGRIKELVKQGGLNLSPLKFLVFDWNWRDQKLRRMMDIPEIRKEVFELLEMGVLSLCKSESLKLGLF
UniProt Q96BR5: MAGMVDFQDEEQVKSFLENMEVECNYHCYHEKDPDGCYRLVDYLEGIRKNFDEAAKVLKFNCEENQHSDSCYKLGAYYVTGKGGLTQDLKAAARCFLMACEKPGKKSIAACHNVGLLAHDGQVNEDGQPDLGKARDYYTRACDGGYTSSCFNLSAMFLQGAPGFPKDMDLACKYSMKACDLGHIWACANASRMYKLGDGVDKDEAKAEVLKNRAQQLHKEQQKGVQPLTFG
UniProt Q7Z422: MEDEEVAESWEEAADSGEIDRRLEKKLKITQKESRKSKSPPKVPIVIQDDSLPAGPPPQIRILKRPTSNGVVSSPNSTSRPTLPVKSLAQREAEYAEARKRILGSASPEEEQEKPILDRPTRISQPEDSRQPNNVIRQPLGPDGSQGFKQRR
UniProt Q8N0Z3: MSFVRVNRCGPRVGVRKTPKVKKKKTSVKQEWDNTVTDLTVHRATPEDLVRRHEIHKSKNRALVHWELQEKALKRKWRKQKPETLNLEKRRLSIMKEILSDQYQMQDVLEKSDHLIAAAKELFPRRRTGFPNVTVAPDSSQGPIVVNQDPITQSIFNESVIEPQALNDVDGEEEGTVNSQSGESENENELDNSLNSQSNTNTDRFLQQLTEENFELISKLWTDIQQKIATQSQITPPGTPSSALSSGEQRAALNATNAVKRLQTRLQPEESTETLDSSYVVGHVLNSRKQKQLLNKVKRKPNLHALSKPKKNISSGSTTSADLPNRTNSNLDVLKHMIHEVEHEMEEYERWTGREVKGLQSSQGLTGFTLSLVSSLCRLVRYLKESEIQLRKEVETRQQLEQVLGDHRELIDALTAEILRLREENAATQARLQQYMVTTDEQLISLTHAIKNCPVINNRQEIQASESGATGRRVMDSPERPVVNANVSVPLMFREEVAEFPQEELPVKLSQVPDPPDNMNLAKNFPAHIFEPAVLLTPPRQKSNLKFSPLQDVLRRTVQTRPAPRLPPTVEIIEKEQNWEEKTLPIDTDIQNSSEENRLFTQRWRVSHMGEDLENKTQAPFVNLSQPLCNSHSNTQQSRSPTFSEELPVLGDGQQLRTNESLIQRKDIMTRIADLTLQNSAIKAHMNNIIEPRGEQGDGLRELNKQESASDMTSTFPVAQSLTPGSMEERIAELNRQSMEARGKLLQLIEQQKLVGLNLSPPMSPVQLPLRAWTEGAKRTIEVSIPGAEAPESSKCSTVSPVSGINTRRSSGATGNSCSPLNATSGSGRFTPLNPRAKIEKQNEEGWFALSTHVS
UniProt Q9NRY2: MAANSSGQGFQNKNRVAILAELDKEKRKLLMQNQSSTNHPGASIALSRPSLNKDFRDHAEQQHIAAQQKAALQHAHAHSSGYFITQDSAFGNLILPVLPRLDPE

Some of the results follow.

Compound in the assay: COc1ccc(Cn2ccc3cc(C)c(C(=O)NO)cc32)cc1
Kind of assay: dose-dependent thermal stabilisation call (2D-TPP, DLPTP, 10% FDR) (binary (1 = stabilised)); higher = stabilised by the compound. The following applies: system: HL-60 intact cells; concentration range 0.04-10 µM. How it is done: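 2D thermal proteome profiling in intact HL-60 cells treated with BRD-3811 (0, 0.04, 0.29, 2, 10 uM) for 90 min at 37 C, then heated 3 min at one of 12 temperatures (42-63.9 C). Soluble protein was quantified by TMT10 MS. The value is the DLPTP call of the paper: dose-dependent thermal stabilisation over all temperatures at 10% FDR (F-test of a dose-response against a flat model); one experiment, one call per tested protein.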
For CAMK4 (UniProt Q16566), the “dose-dependent thermal stabilisation call” value was inactive: 0.

With CD46 (UniProt P15529), the “dose-dependent thermal stabilisation call” value is inactive: 0.

Take CCT5 (UniProt P48643): the “dose-dependent thermal stabilisation call” value is inactive: 0.

With C22ORF9 (UniProt Q6ICG6), the “dose-dependent thermal stabilisation call” value is inactive: 0.

Turning to C1ORF43 (UniProt Q9BWL3), the “dose-dependent thermal stabilisation call” value was inactive: 0.

Turning to C2ORF69 (UniProt Q8N8R5), the “dose-dependent thermal stabilisation call” value was inactive: 0.

CBX3 (UniProt Q13185): the “dose-dependent thermal stabilisation call” value is inactive: 0.

For the target C2ORF7 (UniProt Q9BSG0), the “dose-dependent thermal stabilisation call” value is inactive: 0.

On to C1ORF174 (UniProt Q8IYL3), for which the “dose-dependent thermal stabilisation call” value was inactive: 0.

Turning to C22ORF30 (UniProt Q5THK1), the “dose-dependent thermal stabilisation call” value was inactive: 0.

As for C4ORF41 (UniProt Q7Z392), the “dose-dependent thermal stabilisation call” value is inactive: 0.

CD4 (UniProt P01730): the “dose-dependent thermal stabilisation call” value is inactive: 0.

Take C20ORF7 (UniProt Q5TEU4): the “dose-dependent thermal stabilisation call” value is inactive: 0.

Regarding C1ORF123 (UniProt Q9NWV4), the “dose-dependent thermal stabilisation call” value was inactive: 0.

As to C7ORF11 (UniProt Q8TAP9), the “dose-dependent thermal stabilisation call” value is inactive: 0.

For the target C1ORF57 (UniProt Q9BSD7), the “dose-dependent thermal stabilisation call” value was inactive: 0.

For CANX (UniProt P27824), the “dose-dependent thermal stabilisation call” value was inactive: 0.

Turning to CBX8 (UniProt Q9HC52), the “dose-dependent thermal stabilisation call” value was inactive: 0.

Take CCDC132 (UniProt Q96JG6): the “dose-dependent thermal stabilisation call” value was inactive: 0.

With C1ORF85 (UniProt Q8WWB7), the “dose-dependent thermal stabilisation call” value is inactive: 0.

Take CASP1 (UniProt P29466): the “dose-dependent thermal stabilisation call” value is inactive: 0.

On to CABC1 (UniProt Q8NI60), for which the “dose-dependent thermal stabilisation call” value was inactive: 0.

On to C2ORF79 (UniProt Q6GMV3), for which the “dose-dependent thermal stabilisation call” value was inactive: 0.

Turning to CCNDBP1 (UniProt O95273), the “dose-dependent thermal stabilisation call” value is inactive: 0.

As for C2CD2L (UniProt O14523), the “dose-dependent thermal stabilisation call” value was inactive: 0.

For CARKD (UniProt Q8IW45), the “dose-dependent thermal stabilisation call” value was inactive: 0.

Consider C6ORF47 (UniProt O95873), for which the “dose-dependent thermal stabilisation call” value was inactive: 0.

Take CARD8 (UniProt Q9Y2G2): the “dose-dependent thermal stabilisation call” value was inactive: 0.

As to CCDC55 (UniProt Q9H0G5), the “dose-dependent thermal stabilisation call” value is inactive: 0.

For C3ORF26 (UniProt Q9BQ75), the “dose-dependent thermal stabilisation call” value is inactive: 0.

As to C1ORF163 (UniProt Q96BR5), the “dose-dependent thermal stabilisation call” value is inactive: 0.

Turning to C6ORF136 (UniProt Q5SQH8), the “dose-dependent thermal stabilisation call” value is inactive: 0.

Regarding C1ORF144 (UniProt Q7Z422), the “dose-dependent thermal stabilisation call” value is inactive: 0.

With CCDC52 (UniProt Q8N0Z3), the “dose-dependent thermal stabilisation call” value is inactive: 0.

As for CCDC93 (UniProt Q567U6), the “dose-dependent thermal stabilisation call” value is inactive: 0.

As to C9ORF80 (UniProt Q9NRY2), the “dose-dependent thermal stabilisation call” value is inactive: 0.
